Reference: PubChem BioAssay AID2073 (Sanford-Burnham Center for Chemical Genomics, 2009)
Out of some 290,000 compounds screened, about 570 (0.2%) were called active. Inconclusive results, whose numbers are uncertain, are shown with a selection of clear calls. Cut-off read from the data, not from the text of the source: active = inhibition mostly above about 51% (no sharp cut-off); inconclusive = no clear call, values can overlap the other calls; inactive = mostly below about 53%. Non-standard residues stand in square brackets, D forms with d. Residues, ends and D or L forms follow the SMILES beside them. *: point of attachment. Boc = CC(C)(C)OC(=O)*

By UniProt entry, the sequences of proteins in these tests, tags left out.
UniProt Q00975, whole entry, looked up: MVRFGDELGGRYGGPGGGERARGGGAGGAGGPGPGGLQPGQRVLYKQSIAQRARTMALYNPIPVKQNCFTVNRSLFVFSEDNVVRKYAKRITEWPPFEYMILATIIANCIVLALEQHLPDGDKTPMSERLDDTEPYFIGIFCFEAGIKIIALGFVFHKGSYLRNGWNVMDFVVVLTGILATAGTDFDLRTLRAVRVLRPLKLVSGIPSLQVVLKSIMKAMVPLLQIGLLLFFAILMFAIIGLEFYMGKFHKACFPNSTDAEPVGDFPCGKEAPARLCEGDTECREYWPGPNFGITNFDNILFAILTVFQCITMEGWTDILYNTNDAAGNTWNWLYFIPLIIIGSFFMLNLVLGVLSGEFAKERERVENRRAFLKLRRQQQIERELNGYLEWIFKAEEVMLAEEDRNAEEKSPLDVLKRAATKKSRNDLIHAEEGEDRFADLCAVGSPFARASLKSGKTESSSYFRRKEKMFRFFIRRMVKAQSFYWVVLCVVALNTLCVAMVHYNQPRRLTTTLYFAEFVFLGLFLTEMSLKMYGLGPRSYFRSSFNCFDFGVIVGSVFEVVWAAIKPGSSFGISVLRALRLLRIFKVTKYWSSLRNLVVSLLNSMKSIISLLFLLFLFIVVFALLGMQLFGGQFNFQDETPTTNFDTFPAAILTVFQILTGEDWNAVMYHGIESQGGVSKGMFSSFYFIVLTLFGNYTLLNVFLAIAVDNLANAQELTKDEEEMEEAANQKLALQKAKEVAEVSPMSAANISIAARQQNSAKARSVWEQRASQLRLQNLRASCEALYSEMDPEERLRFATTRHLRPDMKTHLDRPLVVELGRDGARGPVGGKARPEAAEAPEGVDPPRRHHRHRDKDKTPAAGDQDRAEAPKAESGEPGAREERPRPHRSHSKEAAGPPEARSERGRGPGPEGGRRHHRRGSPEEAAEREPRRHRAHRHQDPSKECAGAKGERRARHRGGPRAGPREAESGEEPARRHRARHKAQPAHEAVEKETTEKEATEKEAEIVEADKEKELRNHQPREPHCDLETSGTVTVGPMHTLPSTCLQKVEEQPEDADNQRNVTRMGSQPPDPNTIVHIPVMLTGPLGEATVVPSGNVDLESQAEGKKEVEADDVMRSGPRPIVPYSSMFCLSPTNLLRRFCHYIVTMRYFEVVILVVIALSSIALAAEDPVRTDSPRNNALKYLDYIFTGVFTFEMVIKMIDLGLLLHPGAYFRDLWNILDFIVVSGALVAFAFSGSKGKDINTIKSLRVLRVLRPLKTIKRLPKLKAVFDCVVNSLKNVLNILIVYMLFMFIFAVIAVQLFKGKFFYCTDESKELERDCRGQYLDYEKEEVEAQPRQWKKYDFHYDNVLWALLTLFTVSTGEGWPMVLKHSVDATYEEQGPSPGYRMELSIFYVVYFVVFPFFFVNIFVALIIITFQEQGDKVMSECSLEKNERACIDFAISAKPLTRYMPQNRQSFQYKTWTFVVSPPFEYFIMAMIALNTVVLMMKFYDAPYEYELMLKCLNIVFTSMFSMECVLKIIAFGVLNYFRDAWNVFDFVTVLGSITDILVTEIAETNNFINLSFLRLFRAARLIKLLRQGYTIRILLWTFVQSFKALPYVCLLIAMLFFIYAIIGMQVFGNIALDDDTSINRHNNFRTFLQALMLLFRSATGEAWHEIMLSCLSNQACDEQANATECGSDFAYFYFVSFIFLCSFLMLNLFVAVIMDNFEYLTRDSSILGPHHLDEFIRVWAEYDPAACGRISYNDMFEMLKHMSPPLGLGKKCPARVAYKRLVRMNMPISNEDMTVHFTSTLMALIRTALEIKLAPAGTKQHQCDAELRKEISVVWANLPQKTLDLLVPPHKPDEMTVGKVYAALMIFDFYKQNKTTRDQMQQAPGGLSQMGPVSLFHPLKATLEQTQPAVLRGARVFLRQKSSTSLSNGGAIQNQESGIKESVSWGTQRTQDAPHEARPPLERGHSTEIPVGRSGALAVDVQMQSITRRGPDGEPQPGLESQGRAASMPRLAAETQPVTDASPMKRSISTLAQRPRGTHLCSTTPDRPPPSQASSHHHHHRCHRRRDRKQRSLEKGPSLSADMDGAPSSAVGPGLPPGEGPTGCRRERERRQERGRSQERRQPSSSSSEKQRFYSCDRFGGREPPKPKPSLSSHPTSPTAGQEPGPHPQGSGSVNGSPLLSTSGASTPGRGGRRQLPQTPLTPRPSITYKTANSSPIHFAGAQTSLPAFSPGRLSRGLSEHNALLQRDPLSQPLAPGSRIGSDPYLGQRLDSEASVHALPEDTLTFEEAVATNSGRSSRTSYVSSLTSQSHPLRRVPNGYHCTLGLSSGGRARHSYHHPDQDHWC

target: Voltage-dependent N-type calcium channel subunit alpha-1B (Homo sapiens) (UniProt Q00975); assay: disruptors of CaV2.2 binding to Mint1 – biochemical, HTRF (AID 2073); details: HTRF protein-protein interaction, Mint1-CaV2.2; at 20 µM; hits give high values

SMILES	inhibition
CCN(Cc1ccccc1)C(=O)c1cccc(OC2CCN(C(=O)C3CC3)CC2)c1	inconclusive: 87.2%
Nc1ccc2nc(-c3ccc(Cl)cc3)[nH]c2c1	inconclusive: 65.8%
CCOC(=O)c1sc(NC(=O)c2ccccc2C(=O)O)c(C(=O)OCC)c1C	inconclusive: 67%
CCOc1cccc2sc(=NC(=O)c3ccc(S(=O)(=O)N4CCOCC4)cc3)n(C)c12	inconclusive: 62.6%
COCC1CCN(Cc2cn[nH]c2-c2ccc(OC)c(F)c2)C1 (configuration not stated)	inconclusive: 51.3%
O=C(O)c1ccc(-n2c(=O)c3ccccc3c3ccccc3c2=O)cc1	inactive: -2.9%
CC1C2=C(CC(C)(C)CC2=O)NC2=C1C(=O)CC(C)(C)C2	inconclusive: 67%
CC(C)(C)OC(=O)N[C@H](Cc1ccccc1)C(=O)N1CCC[C@@H]1C(=O)O (Boc-[dF]-[dP]-OH)	inconclusive: 59.9%
COC(=O)C1=C(C)N=C2SC(C#N)=C(N)N2C1c1cc(OC)c(OC)c(OC)c1 (configuration not stated)	inconclusive: 82.9%
N#C/C(=C\C=C\c1ccccc1)c1nc(-c2ccc3c(c2)OCO3)cs1	inconclusive: 62.1%
Cc1cc2nc3c(=O)n(Cc4ccccc4)c(=O)[nH]c3nc2cc1N	active: 55.1%
Cc1cc(NC(=O)Nc2ccc(C)c(C)c2)no1	inconclusive: 54.9%
CC(OC(=O)c1ccccc1O)C(=O)Nc1cccc(Cl)c1 (configuration not stated)	inconclusive: 82.9%
CCOC(=O)c1c(C)cc(C)n2c1nc1ccccc12	inconclusive: 56.9%
O=C(NNC(=O)c1ccncc1)NC1CCCCC1	inconclusive: 64.5%
CCOC(=O)c1c(C)[nH]c(C)c1C(=O)COC(=O)c1cc2ccccc2cc1O	inconclusive: 50.3%
Cc1nn(C)cc1S(=O)(=O)N1CCN(Cc2cccc(Cl)c2)CC1	inconclusive: 50.6%
O=C(N/N=C/c1cc(Br)c(O)c(Br)c1)c1cc2c(ccc3ccccc32)o1	inconclusive: 54.8%
COC(=O)C1CCCN1S(=O)(=O)c1ccccc1NC(=O)c1cc(OC)c(OC)c(OC)c1 (configuration not stated)	inactive: 12.9%
Cc1ccc(CN2CCN(CCC(C)C)C(CCO)C2)s1 (configuration not stated)	inconclusive: 52.7%
COC(=O)/C=C1/SC(=Nc2ccc(C)cc2C)NC1=O	inactive: 0.9%
CC1(C)OC(=O)C(=Cc2ccc(-c3ccc(S(N)(=O)=O)cc3)o2)C(=O)O1	inconclusive: 68.2%

SMILES	inhibition
CC(C)n1c(=S)[nH]c2c1c(=O)[nH]c(=O)n2C	inactive: -95.1%
COc1ccc(F)cc1C(=O)C1CCCN(C(=O)c2ocnc2C)C1 (configuration not stated)	inconclusive: 78.4%
Nc1ccc(-c2nc3cc(N)ccc3s2)cc1	inconclusive: 72%
Cc1nc2ccc3nc(NC(=O)c4ccc5c(c4)OCCO5)sc3c2s1	inconclusive: 55.5%
CN1C(=O)/C(=C/c2cccc(Cl)c2)Sc2ccc(C(=O)NCc3cccnc3)cc21	inconclusive: 52.9%
Cc1cc2ccccn2c1C(=O)c1ccc(NN)c([N+](=O)[O-])c1	inactive: 9.5%
CC1=NN(C(=O)c2ccc(Cn3nc(C)c([N+](=O)[O-])c3C)o2)C(O)(C(F)(F)F)C1 (configuration not stated)	inconclusive: 85%
COc1ccc(CCc2nnc(CCC(=O)NCc3ccc4ncccc4c3)o2)cc1	inactive: -2.5%
O=C(CCN1CCc2ccccc2CC1)c1ccc2c(c1)OCCO2	inconclusive: 55%
CC(=O)c1ccc(N(CC(=O)NC2CCCCC2)C(=O)c2csnn2)cc1	inconclusive: 67.3%
O=C(NCCN1CCOCC1)/C(=C\c1ccccc1Cl)NC(=O)c1ccccc1	inactive: 9.8%
Cc1[nH]n(-c2ccccc2)c(=O)c1N=Nc1ccc(C(=O)O)cc1	inconclusive: 52.5%
O=C(CN(C(=O)c1ccco1)c1cccc(F)c1)NCc1ccc(F)cc1	inconclusive: 65.7%
COc1ccccc1N(CC(O)COc1ccc(C)cc1)S(=O)(=O)c1ccccc1 (configuration not stated)	inconclusive: 64.6%
COc1ccc(N2C(=O)N(Cc3ccc(C)cc3)c3ccccc3S2(=O)=O)cc1	inactive: 5.3%
CNc1cc(CS(=O)c2ccccc2)nc(-c2ccccc2)n1 (configuration not stated)	inconclusive: 52.8%
O=C(NCCc1ccc(F)cc1)C1CCCCC1	inconclusive: 68.8%
COc1ccc(C2CC(=O)C(C=NCCO)=C(O)C2)cc1 (configuration not stated)	inconclusive: 51.8%
O=S(=O)(c1ccc(F)cc1)N1CCN(c2ccc(-c3ccccc3)nn2)CC1	inactive: 41.9%
Cc1ccc(N2C(=O)c3cccc4c(N5CCN(C)CC5)ccc(c34)C2=O)c2cccnc12	inconclusive: 61.2%
COc1cc(N=c2ssnc2Cl)c(OC)cc1Cl	inactive: 46.5%
CCOc1cc2c3c(c1)C(C)CC(C)(C)N3C(=O)C2=O (configuration not stated)	inconclusive: 85.8%

SMILES	inhibition
CCc1nnc(N/N=C/c2c(Cl)cccc2Cl)n1N	inactive: -7.9%
Cc1c(CC(=O)N2CCN(C(=O)C3COc4ccccc4O3)CC2)c(=O)oc2c(C)c(O)ccc12 (configuration not stated)	inconclusive: 54.9%
O=C(O)/C=C/C(=O)NNC(=O)c1ccccc1Br	inconclusive: 59.1%
Cc1cc(Oc2ccc(-c3ccccc3)cc2)n2ncnc2n1	inconclusive: 58.5%
CC(C)NC(=O)N(Cc1ccc(Cl)cc1)Cc1cccs1	inconclusive: 88.7%
Cc1ccc(NC(=O)CSc2ncnc3ccccc23)cc1S(=O)(=O)N1CCOCC1	inconclusive: 53.9%
Oc1c(/C=C/C=C/C=Nc2ccccc2)sc(=S)n1Cc1ccccc1	active: 50.6%
CNS(=O)(=O)c1cn(CC(=O)NCc2ccccc2OC)cc1S(=O)(=O)NC	inconclusive: 57.9%
CCC(OC(=O)c1cccs1)C(=O)NCc1ccco1 (configuration not stated)	inconclusive: 58.1%
CN(C(=S)Nc1ccc(Oc2ccccc2)cc1)c1ccc(O)cc1	inactive: 11%
Fc1ccc(-c2nnn3c2nc(NCc2ccccc2)c2ccccc23)cc1	inconclusive: 67.7%
Cc1c(C#N)c(N)c(C(=O)c2ccccc2)n1Cc1ccccc1	inconclusive: 80.6%
O=C(N/N=C\C=C\c1ccco1)c1cc(-c2ccc3ccccc3c2)n[nH]1	inactive: 80.2%
CN1CCN(c2c(F)cc3c(=O)c(C(=O)O)cn(CCF)c3c2F)CC1	inactive: 29.5%
O=C(Nc1ccc(C2=NCCN2)cc1)c1ccc(C(=O)Nc2ccc(C3=NCCN3)cc2)c(Cl)c1	active: 51.6%
COc1ccc(/C=C2\SC(N3CCCCC3)=NC2=O)cc1	inactive: 3.8%
CC1(C)Cc2ccccc2C(N/N=C/c2cccc(F)c2)=N1	inconclusive: 68.6%
O=[N+]([O-])c1ccc(N2CCCCC2)cc1NCCOc1ccccc1	inconclusive: 53%
Cc1oc2c(c(C)cc3oc(=O)c(CC(=O)N[C@@H](CCCNC(N)=O)C(=O)O)c(C)c32)c1C	inconclusive: 52.5%
Cc1cc(OCC(=O)Nc2ccc(CN3CCOCC3)cc2)c2c(C)cc(=O)oc2c1	inconclusive: 102%
C/C=C/C=C/C(=O)Nc1nccs1	inconclusive: 52.8%
COc1ccc(NC(=O)c2sc3ncn(CC(=O)N4CCN(c5ccccn5)CC4)c(=O)c3c2C)c(OC)c1	inconclusive: 50.2%

SMILES	inhibition
O=C(CSc1nc2[nH]ncc2c(=O)[nH]1)N1CCCC1	inconclusive: 58.5%
CC(=O)c1ccc(NC(=O)c2ccc3nc(-c4ccco4)c(-c4ccco4)nc3c2)cc1	inconclusive: 63.4%
c1ccc(CSc2ncnc3c2sc2nc(N4CCOCC4)c4c(c23)CCCC4)cc1	inconclusive: 57.7%
COc1ccc(NS(=O)(=O)c2ccc3c(c2)[C@H]2C=CC[C@H]2[C@@H](c2ccc(C(=O)O)cc2)N3)cc1	inactive: 20.2%
COc1cc(OC)cc(C(=O)OCC(=O)NC(C)CCc2ccccc2)c1 (configuration not stated)	inactive: 34.5%
O=C(c1cc2ccccc2oc1=O)N(Cc1cccs1)Cc1ccccc1Cl	inconclusive: 52.8%
Cc1ccccc1NC(=O)c1c(C)[nH]c(=S)c(C#N)c1-c1ccco1	active: 50.9%
Cc1ccc(Cl)cc1N1CCN(S(=O)(=O)c2c(C(=O)N3CCOCC3)c(C)n(C)c2C)CC1	inconclusive: 50.5%
CCN(CC(=O)N1CCOCC1)S(=O)(=O)c1ccc(F)cc1	inconclusive: 96.4%
Cc1nn(-c2ccccc2)c(N2CCCC2)c1/C=N/NC(=O)c1cc(-c2cccnc2)nc2ccccc12	inconclusive: 52.3%
Cc1ccc(NC(=S)C2=C(O)c3sccc3N(C)S2(=O)=O)cc1	inconclusive: 56.9%
CCOC(=O)c1c(NC(=O)CN2CCN(C(=O)c3ccco3)CC2)sc(C(N)=O)c1C	inactive: 0%
CCOC(=O)c1sc2nc3c(SCC(=O)O)cc(C(=O)c4ccccc4O)cn3c(=O)c2c1C	active: 53.3%
CC(=O)c1ccc(NC(=O)COC(=O)c2ccccc2Sc2ccccc2C#N)cc1	inconclusive: 63%
CCOC(=O)c1c(C)[nH]c(C)c1C(=O)CSc1nc2ccccc2c(=O)n1-c1ccc(Cl)cc1	inconclusive: 55.2%
COc1cccc(N(CC(=O)NC2CCCCCC2)S(=O)(=O)c2ccccc2)c1	inconclusive: 72.8%
O=C(NCCCO)C(=O)NCc1ccccn1	inconclusive: 53.1%
CC(=O)Nc1ccc([N+](=O)[O-])c(CS(=O)(=O)c2ccc(C)cc2)c1[N+](=O)[O-]	inconclusive: 53.7%
Cn1c(=S)[nH]c(=O)c2ncc(=O)[nH]c21	inactive: -1.9%
COCCn1nnnc1C(c1ccccc1)N1CCN(C(=O)c2ccco2)CC1 (configuration not stated)	inconclusive: 57.6%
CCCCc1cc(=O)oc2cc(OCC(=O)N3CCC(C(N)=O)CC3)ccc12	inactive: 8.7%
